Measurements from PMC8155215, “The splicing factor XAB2 interacts with ERCC1-XPF and XPG for R-loop processing”.
No constants are given. Whether binding was seen depends on the method and setting. Binding seen in cells or lysates may run through a third protein. A yes stands for co-enrichment or nearness to the bait. Other partners may have been found. Sequences can lack the tags named with a protein.

T1: biotin-tagged XAB2 (XPA-binding protein 2) from aviXab2+/+;birA knock-in mice (mouse) (UniProt Q9DCD2)
T1 sequence (chain, biotin on the 15aa Avitag (added in vivo by the BirA ligase)): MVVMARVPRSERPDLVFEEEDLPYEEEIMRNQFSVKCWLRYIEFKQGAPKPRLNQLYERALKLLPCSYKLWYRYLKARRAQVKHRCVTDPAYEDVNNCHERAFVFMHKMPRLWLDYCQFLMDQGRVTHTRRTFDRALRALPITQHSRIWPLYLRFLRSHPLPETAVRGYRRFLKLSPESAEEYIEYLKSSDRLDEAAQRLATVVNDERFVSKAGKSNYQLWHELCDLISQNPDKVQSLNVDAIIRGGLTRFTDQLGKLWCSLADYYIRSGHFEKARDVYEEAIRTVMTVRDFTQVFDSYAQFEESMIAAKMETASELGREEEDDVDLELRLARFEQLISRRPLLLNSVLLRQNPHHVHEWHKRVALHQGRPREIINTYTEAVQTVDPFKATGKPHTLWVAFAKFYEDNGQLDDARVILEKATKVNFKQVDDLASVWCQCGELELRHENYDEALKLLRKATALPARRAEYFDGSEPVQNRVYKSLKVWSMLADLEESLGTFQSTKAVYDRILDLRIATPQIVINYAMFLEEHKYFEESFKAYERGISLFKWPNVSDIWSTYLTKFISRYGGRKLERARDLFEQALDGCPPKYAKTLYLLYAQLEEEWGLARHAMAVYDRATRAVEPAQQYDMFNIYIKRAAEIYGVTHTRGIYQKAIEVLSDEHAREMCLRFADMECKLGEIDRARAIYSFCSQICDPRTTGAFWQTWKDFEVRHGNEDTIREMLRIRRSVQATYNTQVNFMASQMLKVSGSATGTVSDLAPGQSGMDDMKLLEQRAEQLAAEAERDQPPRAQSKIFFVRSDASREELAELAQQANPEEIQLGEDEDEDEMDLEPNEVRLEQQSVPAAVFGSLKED

B1: WDR75 (protein, UniProt Q3U821 1-830)
chain: MVEEGVRVVRCGGSRLNFRRAVFSVDSKYIFCVSGDFVKVYSTTTEECVHILHGHTDLVSGILVNPSNHLQLYSCSFDGTIKLWDYVDGILIKTFTIGPKLHAFFIPLHAEDSVFLTISKEEPDIFQLVSVKLPKSTSQDVEARQLTFVLDYINRSPKCIAFGNEGEYVAAVRDFYLSVYFFKKKKTCNFTLPSTKNKKNAKNKFTCVACHPKEDCIASGHMDGKIRLWRNFHSDQKYTYTCLHWHHDMVMDLAFTVTGTSLLSGGRECVLVEWRDGSEKNKEFLPRLGSSIEHISVSPAGDLFCTSHSDNKITVIHRNLDASAVIQGLVKDRSISTGLMVDPRTKALVLNGKPGHLQFYSLQGDKQLYNLDIIQQEYINDEGLTQTELTKAAFGCSGTWLATVEQRQENENELELQMKLWNYSKKTQGFVLNTKIAMPHDDHITALCFNNAESYEKPILVTASRDGHFKVWILTDDSDIYKKAIAWTCDFVGSYHKYQATNCCFSEDGSLLAVSFEEIVTIWDSQTWELKCTFCQRAGKIRHLCFGRLTCSKYLLGTTDNGILCCWNLLSCSIQWSAKLNVRVMEPDPYSDHVAAVAQSSAGSDLFVFKPSEPRPLYIQKNVSREEVQWGVFVPRDVPESFTSETHQWLNRSQFYFLTKSQSLLTFSTKSPEEKLTPTSKQLLAEESLPTTPFSFILGKHRQQQGAKLTETSENELVQLPLTENIPAITELLHTPAHVLPSASFLCSLFVNSLLLSKETKSAEEVPDDVDMEGNKESDDSDEEYDLTEKDKETNNNTDLGEDAIHQLSKSEEKELRKFRKVDYSWLTAL
B2: NUP107 (protein, UniProt Q8BH74 1-926)
chain: MDRSGFGGMSSPVIRDAEVTRTARKHSAHKRVLIQANQEDNFGTATPRSQIIPRTPSSFRQPFVTPSSRSLLRHPDISYILGTEGRSPRHTQSSGYLGNLSMVTNLDDSNWAAAFSSQRLGLYTNTEHHSMTEDVNLSTVMLREDDPGEAASMSMFSDFLHSFLKHSSTTVFDLVEEYENICGSQVNILSKIVSRATPGLQKFSKTASMLWLLQQEMVTWRLLASLYRDRIQSSLEEENMFAIAGINASEKMVVETLFQRDSLVRQSQLVVDWLESIAKDEIGEFSDNIEFYAKSVYWENTLHSLKQRQLLSHMGSTRPLVTELDPDAPIRQKLPLDDLDREDEVRLLKYLFTLIRAGMTEEAQRLCKRCGQAWRAATLEGWKLYHDPNVNGGTELEPVEGNPYRRIWKISCWRMAEDELFNKYERAIYAALSGNLKQLLPVCDTWEDTVWAYFRVMVDSLVEQEIRTSVMTQDDSEELPREYMEANWTLEKVFEELQATDKKRVLEENQEHYHIVQKFLILGDVDGLMDEFSKWLSKSGSSLPGHLLRFMTHLILFLRTLGLQTKEEVSIEVLKTYIQLLISEKHTSLIAFYTCHLPQDLAVAQYALFLEGVTEFEQRHQCLELAKEADLDVATITKTVVENICKKDNGEFSHHDLAPSLDTGTTEEDRLKIDVIDWLVFDPAQRAEALRQGNAIMRKFLALKKHEAAKEVFVKIPQDSIAEIYNQWEEQGMESPLPAEDDNAIREHLCIRAYLEAHETFNEWFKHMNSAPQKPTLLSQATFTEKVAYEHREKKYEMDHNIWKGHLDALTADVKEKMYNVLLFVDGGWMVDVREDAEDDPERTHQMVLLRKLCLPMLCFLLHTILHSTGQYQECLQLADMVSSERHKLYLVFSKEELRKLLQKLRESSLMLLDQGLDPLGYEIQS
B3: UTP15 (protein, UniProt Q8C7V3 1-528)
chain: MAGYKPVAIQTYPVLGEKITQDTLYWNNYKTPVQIKEFGAVSKVDFSPQLPYNYAVTASSRIHIYGRYSQEPVKTFSRFKDTAYCATFRQDGQLLVAGSEDGVVQLFDINGRAPLRQFEGHTKAVHTVDFTADNYHVVSGADDYTVKLWDIPNSKEILTFKEHSDYVRCGCASKLNPDLFVTGSYDHTVKIFDARTNKNVLCVEHGQPVESVLLFPSGGLLVSAGGRYVKVWDMLKGGQLLVSLKNHHKTVTCLCLSSSGQRLLSGSLDRKVKVYSTTSYKVVHSFDYAASILSLALSHQDETIVVGMTNGILSVKHRKSEAKKTSLPRRRRPAYRTFIKGKNYLKQRDDIMVSRPAKKHLEGYDKDLKSFRVSQALDRVLEPKCVIRTPEVTVSIIKELTRRGVLANALAGRDEKEVTRVLNFLIRNLSQPRFAPVLINAAEIIIDIYLPVIGQSSVVDKKFIVLQELVEKEIDYQRELLETLGMMDMLFATMTRNDSDPVPEHVPAELPEEKTESPTQPSDTDKNS
B4: SNRP40 (protein, UniProt Q6PE01 1-358)
chain: MIEQQKRKGPELPLVPVKRPRHELLLGAAGAGPGAGPQQATPGALLQAGPPRCSSLQAPIMLLSGHEGEVYCCKFHPNGSTLASAGFDRLILLWNVYGDCDNYATLKGHSGAVMELHYNTDGSMLFSASTDKTVAVWDSETGERVKRLKGHTSFVNSCYPARRGPQLVCTGSDDGTVKLWDIRKKAAVQTFQNTYQVLAVTFNDTSDQIISGGIDNDIKVWDLRQNKLTYTMRGHADSVTGLSLSSEGSYLLSNAMDNTVRVWDVRPFAPKERCVKIFQGNVHNFEKNLLRCSWSPDGSKIAAGSADRFVYVWDTTSRRVLYKLPGHAGSINEVAFHPDEPIILSASSDKRLYMGEIQ
B5: NOP58 (protein, UniProt Q6DFW4 1-536)
chain: MLVLFETSVGYAIFKVLNEKKLQEVDSLWKEFETPEKANKIVKLKHFEKFQDTAEALAAFTALMEGKINKQLKKVLKKIVKEAHEPLAVADAKLGGVIKEKLNLSCIHSPVVNELMRGIRSQMDGLIPGVEPREMAAMCLGLAHSLSRYRLKFSADKVDTMIVQAISLLDDLDKELNNYIMRCREWYGWHFPELGKIISDNLTYCKCLQKVGDRKNYASASLSEFLSEEVEAEVKAAAEISMGTEVSEEDICNILHLCTQVIEISEYRTQLYEYLQNRMMAIAPNVTVMVGELVGARLIAHAGSLLNLAKHAASTVQILGAEKALFRALKSRRDTPKYGLIYHASLVGQSSPKHKGKISRMLAAKTVLAIRYDAFGEDSSSAMGIENRAKLEARLRILEDRGIRKISGTGKALAKAEKYEHKSEVKTYDPSGDSTLPTCSKKRKIEEVDKEDEITEKKAKKAKIKIKAEVEEEMEEEEAEEEQVVEEEPTVKKKKKKDKKKHIKEEPLSEEEPCTSTAVPSPEKKKKKKKKKDAED
B6: XRN2 (protein, UniProt Q9DBR1 1-951)
chain: MGVPAFFRWLSRKYPSIIVNCVEEKPKECNGVKIPVDASKPNPNDVEFDNLYLDMNGIIHPCTHPEDKPAPKNEDEMMVAIFEYIDRLFNIVRPRRLLYMAIDGVAPRAKMNQQRSRRFRASKEGMEAAVEKQRVREEILAKGGFLPPEEIKERFDSNCITPGTEFMDNLAKCLRYYIADRLNNDPGWKNLTVILSDASAPGEGEHKIMDYIRRQRAQPNHDPNTHHCLCGADADLIMLGLATHEPNFTIIREEFKPNKPKPCALCNQFGHEVKDCEGLPREKKGKHDELADSLPCAEGEFIFLRLNVLREYLERELTMASLPFPFDVERSIDDWVFMCFFVGNDFLPHLPSLEIREGAIDRLVNIYKNVVHKTGGYLTESGYVNLQRVQMIMLAVGEVEDSIFKKRKDDEDSFRRRQKEKRKRMKRDQPAFTPSGILTPHALGSRNSPGCQVASNPRQAAYEMRMQRNSSPSISPNTSFASDGSPSPLGGIKRKAEDSDSEPEPEDNVRLWEAGWKQRYYKNKFDVDAADEKFRRKVVQSYVEGLCWVLRYYYQGCASWKWYYPFHYAPFASDFEGIADMSSEFEKGTKPFKPLEQLMGVFPAASGNFLPPTWRKLMSDPDSSIIDFYPEDFAIDLNGKKYAWQGVALLPFVDERRLRAALEEVYPDLTPEENRRNSLGGDVLFVGKLHPLRDFILELYQTGSTEPVDVPPELCHGIQGTFSLDEEAILPDQTVCSPVPMLRDLTQNTAVSINFKDPQFAEDYVFKAAMLPGARKPATVLKPGDWEKSSNGRQWKPQLGFNRDRRPVHLDQAAFRTLGHVTPRGSGTSVYTNTALPPANYQGNNYRPLLRGQAQIPKLMSNMRPQDSWRGPPPLFQQHRFERSVGAEPLLPWNRMIQNQNAAFQPNQYQMLGGPGGYPPRRDDHRGGRQGYPREGRKYPLPPPSGRYSWN
B7: WDR43 (protein, UniProt Q6ZQL4 1-677)
chain: MAAGGGGSYDPLAPAGVPCAFSPDSQAYFALASSDGQLRVWETANNRLHQEYVPSAHLSGTCTCLAWAPARLQAKESHQRKKRKSEVTGTKDQADLLALGTAVGSILLYSTVRGELHSKLTSGGHENRVNCIQWHQDNDCLYSCSDDKYIVEWSTQTCKVKCKWKGDNSSVSSLCISPDGKMLLSAGRTIKLWVLETKEVYRHFTGHATPVSSLRFTTIRPNESQPSDGITGLYFLSGAVHDRLLNVWQVRSENKEKSAVMSFTVTDEPVYVDLTLSENKEEPVKLAVVCRDGQVHLFEHILNGHCKKPLTSNCTIQIATPGKGKKVTPKPIPILAASFCLDKMSLLLVYGNWFQPTIERVALNSKDTHICLERDISNCWAPTVETAITKVKTPVMNSEAKVLVPGIPGHHAPIKLPPAQPKEAENKRKLGSTEATIEERLGAMDLDRKGRKDDLQTNSFAVLLTQGLESNDFEILNKVLQTKNVNLIKRTVLRIPLRVVIPLLQELTKRLQGHPNSAALMIQWLKCVLTIHASYLSTLPDLVEQLGTLYQLMESRVKTFQKLSNLHGKLILLVTQVTASEKSKKMTSPGQKAKLVYEEESSEEESDDEVPEKDSDDNWDEDEDKDSEKDEGVDEDNEEEDEDMEDKEENEEDREVSSEKELNGDSDLDPENESEEE

Molecular target: T1, biotin-tagged XAB2 (XPA-binding protein 2) from aviXab2+/+;birA knock-in mice (mouse)
Assay: affinity purification with mass spectrometry; bXAB2 captured on M-280 streptavidin beads from high-salt nuclear extracts of P15 bXAB2 livers treated with benzonase and RNase A; BirA livers as control; three biological replicates, nLC-MS/MS

binding, binds:
B1
B2
B3
B4
B5
B6
B7
